This assay can be described thus: qHTS Assay for Lipid Storage Modulators in Drosophila S3 Cells.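 On cell number change: cells counted by Cell Tracker Red CMTPX staining in the red channel.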 The note with it: BODIPY lipid droplet fluorescence, 18-24 h; for cell number change: measured here: cell count max response, cells fed with added oleic acid. The method in brief: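 Laser-scanning cytometry quantifies lipid droplet accumulation (500–530 nm total intensity; droplet/cell object ratio) in oleic acid-fed (400 uM added) Drosophila S3 cells treated with a concentration series. 20 uM Triacsin C defined 100% inhibition.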

Where [1] appears, read: measured here: lipid fluorescence (Fed channel) AC50, cells fed with added oleic acid.
Setting [2] is: measured here: cell number channel AC50, cells fed with added oleic acid.

Cell number change and AC50 data for 62 compounds are collected here from PubChem BioAssay AID2685 (National Center for Advancing Translational Sciences (NCATS), 2010).

This is one part of the list. Further columns of the screen follow, without active or inactive calls. Most of these compounds were active or inconclusive in the main read-out, so they are no random draw. Potencies come from curve fits of mixed quality, noted in brackets.

For `COC(=O)C(CCSC)NC(=O)Cn1ncc2c(=O)oc3ccc(C)cc3c21` (stereo unspecified), the cell number change stood at 28.5%.

`Cc1n[nH]c(=O)nc1NCc1ccco1`: the cell number change was found to be 25.5%.

In the case of `Cc1[nH]c2ccccc2c1C(=O)COC(=O)C1CCC(=O)N1` (stereo unspecified), the cell number change came out at 1.61%.

In the case of `COc1ccc(/C=C/C(=O)OCCCN(C)C)cc1`, the cell number change is -5.41%.

With `N#CC(c1ccc(Cl)nn1)c1ccccc1Cl` (stereo unspecified), the cell number change was found to be 2.76%. Moreover, under setting [1], the AC50 was 23.1 µM [rising, single point].

Consider `Cc1ccc(OCCCC(=O)NNC(=O)c2ccncc2)cc1`, for which the cell number change was 16.4%. Moreover, under setting [1], the AC50 was 9.2 µM [rising, single point].

Consider `COc1ccc(NC(=O)C(=O)NNC(=O)c2cccs2)c(OC)c1`, for which the cell number change was found to be 2.82%. The AC50 under setting [1] was 6.51 µM [rising, single point].

On to `COc1cccc(C2=N/C(=C\N(C)C)C(=O)O2)c1`, for which the cell number change is -21%.

On to `NC(=O)c1ccc(C(=O)N/N=C/c2cccc(Oc3ccccc3)c2)cc1`, for which the cell number change is -0.495%. Besides, the AC50 under setting [1] was 0.58 µM [rising, single point].

Take `Cc1ccc(Cl)cc1NS(=O)(=O)c1ccc2oc(=O)ccc2c1`: the cell number change amounted to 6.72%. In addition, the AC50 under setting [1] is 0.13 µM [rising, partial curve, poor fit].

For the compound `Cc1nnc2ccc(-c3ccc(NS(C)(=O)=O)cc3)nn12`, the cell number change is 0.823%.

Regarding `Cc1ccccc1C(=O)N1CCC(n2nccc2NC(=O)C2CC2)CC1`, the cell number change is -18.5%. Besides, the AC50 under setting [2] is 2.06 µM [falling, partial curve, poor fit].

As to `CN(C)S(=O)(=O)c1cc(NC(=O)COC(=O)Cc2ccc(Cl)cc2Cl)ccc1Cl`, the cell number change was determined as 10.1%. In addition, under setting [1], the AC50 is 13 µM [rising, partial curve].

Take `CCn1c(=O)c2ccccc2n(CC(=O)NC2CCCCC2)c1=O`: the cell number change was -11.5%. For the same compound, under setting [1], the AC50 was 0.326 µM [rising, full curve, poor fit].

Consider `CCc1ccccc1NC(=O)CSc1nc2ccccc2nc1N1CCOCC1`, for which the cell number change was determined as 18.7%. Under setting [1], the AC50 was 20.6 µM [rising, single point].

In the case of `O=C(NCCN1C(=O)S/C(=C\c2ccccc2F)C1=O)C1=COCCO1`, the cell number change came out at 112%. Also, the AC50 under setting [2] was 13 µM [rising, partial curve].

Turning to `C=CCOc1ccccc1CNCc1cccnc1`, the cell number change is 19.9%. For the same compound, the AC50 under setting [1] is 29.1 µM [rising, single point].

Turning to `CN(Cc1ccco1)C(=O)c1ccc(S(=O)(=O)N2CCCCCC2)cc1`, the cell number change was -9.51%. Also, the AC50 under setting [1] was 0.103 µM [falling, partial curve, poor fit].

Regarding `COc1ccc(C2C(C(C)=O)=C(O)C(=O)N2CCN(C)C)cc1OC` (stereo unspecified), the cell number change is -47.9%. Also, the AC50 under setting [2] is 3.26 µM [falling, full curve]. Besides, the AC50 under setting [1] is 29.1 µM [falling, partial curve].

Turning to `O=C(CO/N=C/c1c(Cl)cccc1Cl)NNC(=O)c1cccc(Cl)c1`, the AC50 under setting [1] was 6.51 µM [rising, partial curve, poor fit].

As to `CNC(=S)SCCOc1ccc(C)cc1`, the cell number change is -31.4%. For the same compound, the AC50 under setting [2] was 29.1 µM [falling, single point]. Moreover, the AC50 under setting [1] is 29.1 µM [falling, single point].

`COC(=O)Cn1c(C)nc2ccccc21`: the cell number change is -19.9%. Also, the AC50 under setting [1] was 0.0731 µM [falling, full curve, poor fit].

Take `Cc1ccc(NS(=O)(=O)c2cccc(C(=O)NCCCN3CCCC3=O)c2)cc1`: the cell number change came out at 29.4%. For the same compound, the AC50 under setting [1] was 8.2 µM [rising, partial curve].

For `Cc1ccccc1NC(=S)N(Cc1cccnc1)Cc1ccco1`, the cell number change was -8.67%. Further, the AC50 under setting [2] is 2.06 µM [rising, partial curve].

Regarding `CN(CC(=O)Nc1ccccc1C(F)(F)F)Cc1c(O)ccc2ccccc12`, the cell number change was -9.52%. Also, the AC50 under setting [1] is 29.1 µM [falling, single point].

Regarding `CCN(C(=O)COC(=O)CNS(=O)(=O)c1ccc2ccccc2c1)C1CCCCC1`, the cell number change is 2.02%. Further, the AC50 under setting [1] is 1.3 µM [falling, partial curve, poor fit].

For the compound `Cc1ccc(NC(=O)CN(C)C(=O)c2n[nH]c(=O)c3ccccc23)cc1`, the cell number change amounted to 63%. The AC50 under setting [2] is 16.4 µM [rising, single point]. For the same compound, under setting [1], the AC50 was 23.1 µM [rising, single point].

Take `O=C(c1ccccn1)N1CCN(S(=O)(=O)c2ccc(F)cc2)CC1`: the cell number change was found to be 40.1%.

For the compound `CC(=O)N(C)c1ccc(N=NC2C(=O)N(C(N)=S)N=C2C)cc1` (stereo unspecified), the cell number change is -15.1%. Under setting [2], the AC50 was 0.058 µM [falling, full curve, poor fit]. For the same compound, under setting [1], the AC50 is 5.17 µM [falling, single point].

Turning to `Cc1ccc(CNC(=O)CC(NC(=O)c2ccccc2)c2ccccc2)cc1` (stereo unspecified), the cell number change was -11.9%. Moreover, the AC50 under setting [2] is 0.0058 µM [falling, full curve, poor fit]. For the same compound, the concentration at half-maximal activity (AC50) under setting [1] is 0.00461 µM [falling, full curve, poor fit].

In the case of `O=C(CN1CCCCCC1)NC(c1ccccc1)c1ccccc1`, the cell number change was -27%. Moreover, the AC50 under setting [1] is 0.13 µM [falling, full curve, poor fit].

With `CC1(OC(=O)C2CCCC2)C(=O)C=C2C=C(c3ccsc3)N(c3ccccc3)C=C2C1=O` (stereo unspecified), the cell number change is -32.2%. The AC50 under setting [1] is 29.1 µM [falling, single point].

As to `Oc1c(C(c2cccs2)N2CCC3(CC2)OCCO3)sc2ncnn12` (stereo unspecified), the cell number change is 7.07%. Further, the AC50 under setting [1] was 23.1 µM [falling, partial curve].

On to `CCOC(=O)c1ccccc1NC(=O)COC(=O)CCNS(=O)(=O)c1ccccc1`, for which the cell number change is -9.09%. The AC50 under setting [1] was 10.3 µM [falling, partial curve, poor fit].

Regarding `Cc1cc(C)c(NC(=O)CSc2nc3ncc(Cl)cc3[nH]2)c(C)c1`, the cell number change was -7.65%. Also, under setting [1], the AC50 is 29.1 µM [rising, single point].

As for `CCCCCCc1ccc(N2C[C@H](Cc3ccccc3)[C@@H](CC(=O)NCc3ccc(OC)cc3)C2=O)cc1`, the cell number change is 39.2%. In addition, the AC50 under setting [2] was 16.4 µM [rising, single point]. In addition, the AC50 under setting [1] is 29.1 µM [falling, single point].

For the compound `Cc1ccc(S(=O)(=O)N2CCOCC2)cc1C(=O)OC1CCOC1=O` (stereo unspecified), the cell number change is 1%.

On to `COc1ccc(CN(C)C(=O)c2ccc(NS(=O)(=O)c3ccc(F)cc3)cc2)c(OC)c1OC`, for which the cell number change is -0.697%. In addition, under setting [1], the AC50 was 16.4 µM [falling, single point].

Take `Cc1ccc(S(=O)(=O)N(C)c2c(C)ccc(S(=O)(=O)NC(C)(C)C)c2C)cc1`: the cell number change turned out to be 18%. The AC50 under setting [1] is 0.146 µM [falling, full curve, poor fit].

`CCC1CCCCN1C(=O)NC(=O)c1ccccc1` (stereo unspecified): the cell number change was determined as 7.67%. In addition, the AC50 under setting [2] was 0.103 µM [rising, single point].

Take `COCCn1c(-c2ccco2)nc2nc3ccccc3nc21`: the AC50 runs as follows: under setting [2], 6.51 µM [rising, single point]; under setting [1], 6.51 µM [rising, single point].

Regarding `COC(=O)c1cc(OC)c(OC)cc1NC(=S)N1CCN(Cc2ccccc2)CC1`, the AC50 reads like this: under setting [2], 0.116 µM [rising, full curve, poor fit]; under setting [1], 0.259 µM [rising, partial curve, poor fit].

For the compound `O=C(COC(=O)c1cc(Cl)ccc1Cl)Nc1ccc2[nH]c(=O)[nH]c2c1`, the cell number change is -7.8%. For the same compound, the AC50 under setting [1] is 29.1 µM [falling, single point].

For `O=C(CSc1nc2ccccc2s1)NC1CCCC1`, the cell number change was determined as 53.3%. In addition, the AC50 under setting [2] was 18.4 µM [rising, single point].

Take `CN1CCN(CCNC(=O)Nc2ccccc2[N+](=O)[O-])CC1`: the cell number change amounted to 25.8%.

For `COC(=O)c1nccc2c1[nH]c1ccccc12`, the cell number change was 26.9%.

For the compound `CCn1c(=O)n(CC)c2cc(NC(=O)C(C)c3ccccc3)c(Br)cc21` (stereo unspecified), the cell number change is -9.38%. Besides, the AC50 under setting [1] was 10.3 µM [falling, partial curve, poor fit].

Regarding `CC1CCN(C(=O)CSc2nnc(Cc3cccn3C)n2CCc2ccccc2)CC1`, the cell number change came out at 16.1%. Besides, the AC50 under setting [1] was 14.6 µM [rising, partial curve, poor fit].

In the case of `Cc1ccc2nc(N=C(N)N)nc(C)c2c1`, the cell number change worked out at 69.2%. The AC50 under setting [2] is 23.1 µM [rising, single point]. Moreover, the AC50 under setting [1] is 29.1 µM [rising, partial curve, poor fit].

Take `O=C(/C=C/c1ccco1)NC(=S)Nc1cc(-c2nc3ccccc3s2)ccc1Cl`: the AC50 under setting [1] is 2.06 µM [falling, partial curve, poor fit].

`CC(=O)c1cccc(N=c2scc(-c3ccc(S(=O)(=O)N4CCOCC4)cc3)n2CCO)c1`: the cell number change is -52%. The AC50 under setting [2] was 3.66 µM [falling, full curve]. Moreover, under setting [1], the AC50 is 6.51 µM [falling, full curve].

With `CN(CC(=O)Nc1cccc(F)c1)C(=O)c1cc(-c2cccs2)nn1-c1ccccc1`, the AC50 under setting [2] was 2.06 µM [rising, single point].

`CCCC(=O)Nc1ccc(NC(=O)c2ccccn2)cn1`: the cell number change was -2.55%.

With `O=C(NCCc1cnc[nH]1)c1cccs1`, the cell number change was -19.6%. Moreover, the AC50 under setting [1] is 16.4 µM [rising, single point].

As to `COc1ccc(NS(=O)(=O)Cc2ccccc2)cc1OC`, the AC50 under setting [1] was 6.51 µM [rising, single point].

Consider `COc1ccc(C2C(C(=O)NCc3ccccn3)c3cc(OC)c(OC)cc3C(=O)N2C)cc1` (stereo unspecified), for which the cell number change came to 11.2%.

`O=C(Nc1cccc([N+](=O)[O-])c1)c1ccc2c(c1)OCO2`: the cell number change came to 31.4%. Moreover, under setting [2], the AC50 is 3.66 µM [rising, partial curve]. In addition, under setting [1], the AC50 is 2.91 µM [rising, single point].

For the compound `O=C(CN(Cc1ccccc1Cl)C(=O)CNS(=O)(=O)c1ccc(F)cc1)NCC1CCCO1` (stereo unspecified), the cell number change is -7.69%.

Take `CCN(CC)CCCN(Cc1cc2cc3c(cc2[nH]c1=O)OCO3)C(=S)NC`: the cell number change was determined as 1.37%.

Consider `CCOC(=O)c1cc2n(c1C)-c1ccccc1C2=O`, for which the cell number change is -23.2%. The AC50 under setting [1] is 23.1 µM [falling, partial curve].

In the case of `Cc1c(Cl)cccc1NC(=O)c1ccc(OCC(=O)NCc2ccccc2)cc1`, the cell number change is -23.8%. For the same compound, the AC50 under setting [1] is 20.6 µM [falling, single point].

As to `CC(C)(C)n1nc2c(c1NC(=O)Cc1ccc([N+](=O)[O-])cc1)CS(=O)(=O)C2`, the cell number change was -14.1%. Also, the AC50 under setting [2] is 6.51 µM [falling, single point]. Moreover, the AC50 under setting [1] is 0.00411 µM [falling, full curve, poor fit].
